Results on five molecules are retold here after publication PMC4646279.

Chains of the proteins cited; added tags and fusions are not shown. Residues count along the entry.
UniProt P17655, residues 20-700: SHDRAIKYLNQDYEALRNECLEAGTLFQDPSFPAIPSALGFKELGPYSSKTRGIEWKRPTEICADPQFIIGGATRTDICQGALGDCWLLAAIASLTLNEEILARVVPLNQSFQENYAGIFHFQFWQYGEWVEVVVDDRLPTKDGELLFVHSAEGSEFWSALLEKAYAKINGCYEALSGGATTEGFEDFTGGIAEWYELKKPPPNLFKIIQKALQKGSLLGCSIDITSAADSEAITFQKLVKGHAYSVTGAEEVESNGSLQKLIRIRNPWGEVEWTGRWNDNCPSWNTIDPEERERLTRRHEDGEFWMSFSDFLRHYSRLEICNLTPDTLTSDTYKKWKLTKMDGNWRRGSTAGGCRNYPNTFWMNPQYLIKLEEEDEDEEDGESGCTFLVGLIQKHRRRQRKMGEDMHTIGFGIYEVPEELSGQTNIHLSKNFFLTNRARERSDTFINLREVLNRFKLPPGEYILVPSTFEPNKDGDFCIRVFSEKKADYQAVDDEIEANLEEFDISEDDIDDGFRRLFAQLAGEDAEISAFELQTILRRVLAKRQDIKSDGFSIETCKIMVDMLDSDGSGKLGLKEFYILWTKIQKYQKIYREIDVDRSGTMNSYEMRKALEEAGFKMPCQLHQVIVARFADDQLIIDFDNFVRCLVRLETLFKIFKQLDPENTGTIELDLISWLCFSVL
UniProt P07384: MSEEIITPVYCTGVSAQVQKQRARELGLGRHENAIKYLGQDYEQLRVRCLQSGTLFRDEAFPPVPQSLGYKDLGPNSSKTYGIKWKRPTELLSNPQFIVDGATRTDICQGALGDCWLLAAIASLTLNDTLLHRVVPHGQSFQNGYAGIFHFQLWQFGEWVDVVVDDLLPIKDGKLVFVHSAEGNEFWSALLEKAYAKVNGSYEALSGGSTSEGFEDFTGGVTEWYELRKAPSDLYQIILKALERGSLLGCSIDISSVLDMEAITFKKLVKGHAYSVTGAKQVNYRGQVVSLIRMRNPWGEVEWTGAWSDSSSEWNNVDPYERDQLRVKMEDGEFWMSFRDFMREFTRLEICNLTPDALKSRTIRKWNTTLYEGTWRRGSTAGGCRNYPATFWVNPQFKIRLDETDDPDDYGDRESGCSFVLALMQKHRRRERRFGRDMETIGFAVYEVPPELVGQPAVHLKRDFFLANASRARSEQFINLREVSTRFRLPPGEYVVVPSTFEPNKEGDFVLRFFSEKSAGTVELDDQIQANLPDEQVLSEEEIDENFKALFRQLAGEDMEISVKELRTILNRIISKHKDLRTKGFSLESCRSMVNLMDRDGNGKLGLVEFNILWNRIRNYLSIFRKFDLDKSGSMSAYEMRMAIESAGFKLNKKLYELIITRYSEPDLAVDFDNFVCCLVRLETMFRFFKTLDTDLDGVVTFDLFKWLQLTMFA

Test [1] has as its target T1, FLAG-EPRS (human), P07814.
T1 chain: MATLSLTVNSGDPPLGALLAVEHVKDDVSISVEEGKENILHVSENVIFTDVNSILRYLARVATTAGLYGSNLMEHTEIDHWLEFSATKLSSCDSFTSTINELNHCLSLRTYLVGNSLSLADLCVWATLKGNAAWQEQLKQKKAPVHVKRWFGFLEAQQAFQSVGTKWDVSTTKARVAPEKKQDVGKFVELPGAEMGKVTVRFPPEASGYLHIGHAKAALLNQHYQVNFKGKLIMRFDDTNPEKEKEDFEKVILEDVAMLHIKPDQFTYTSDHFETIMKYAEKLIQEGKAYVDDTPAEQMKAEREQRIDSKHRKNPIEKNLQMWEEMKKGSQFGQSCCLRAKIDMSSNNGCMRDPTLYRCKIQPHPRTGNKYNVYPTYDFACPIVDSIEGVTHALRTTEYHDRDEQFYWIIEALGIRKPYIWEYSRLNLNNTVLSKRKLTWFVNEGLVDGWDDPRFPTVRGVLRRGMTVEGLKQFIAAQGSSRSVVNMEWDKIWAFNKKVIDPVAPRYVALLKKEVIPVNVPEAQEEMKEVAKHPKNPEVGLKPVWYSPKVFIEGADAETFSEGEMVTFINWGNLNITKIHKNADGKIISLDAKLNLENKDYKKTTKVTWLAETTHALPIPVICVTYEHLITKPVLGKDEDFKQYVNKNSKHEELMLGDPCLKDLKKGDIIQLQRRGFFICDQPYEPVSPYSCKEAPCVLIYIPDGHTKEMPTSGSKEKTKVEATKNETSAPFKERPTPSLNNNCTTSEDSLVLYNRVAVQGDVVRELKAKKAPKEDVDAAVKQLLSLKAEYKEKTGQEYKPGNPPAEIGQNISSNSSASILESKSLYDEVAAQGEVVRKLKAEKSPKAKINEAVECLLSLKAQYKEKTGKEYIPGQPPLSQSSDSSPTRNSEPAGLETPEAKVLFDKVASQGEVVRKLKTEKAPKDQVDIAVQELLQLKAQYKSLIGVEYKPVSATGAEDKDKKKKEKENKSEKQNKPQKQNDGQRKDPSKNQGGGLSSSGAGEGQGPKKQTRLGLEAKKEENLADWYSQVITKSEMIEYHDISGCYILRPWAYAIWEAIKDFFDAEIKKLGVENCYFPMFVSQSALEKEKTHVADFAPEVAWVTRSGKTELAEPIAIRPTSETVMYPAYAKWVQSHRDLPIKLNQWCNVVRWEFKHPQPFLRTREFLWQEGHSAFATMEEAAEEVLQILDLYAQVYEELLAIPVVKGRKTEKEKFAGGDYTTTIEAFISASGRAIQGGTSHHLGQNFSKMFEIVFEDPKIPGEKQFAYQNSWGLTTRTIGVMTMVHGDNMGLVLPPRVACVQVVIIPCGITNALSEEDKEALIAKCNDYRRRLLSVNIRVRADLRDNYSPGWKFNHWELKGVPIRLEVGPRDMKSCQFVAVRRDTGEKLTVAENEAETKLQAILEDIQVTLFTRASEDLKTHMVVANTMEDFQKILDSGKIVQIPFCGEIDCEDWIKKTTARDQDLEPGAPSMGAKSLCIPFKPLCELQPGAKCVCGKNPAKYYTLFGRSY
Description: co-IP; 293T co-overexpressing FLAG-EPRS, MetRS-His6 and AspRS-Myc; purified with anti-FLAG affinity gel; Western blot. Conditions: remark: other sources report otherwise.

The target in test [2] is T2, FLAG-ArgRS (human), P54136.
T2 chain: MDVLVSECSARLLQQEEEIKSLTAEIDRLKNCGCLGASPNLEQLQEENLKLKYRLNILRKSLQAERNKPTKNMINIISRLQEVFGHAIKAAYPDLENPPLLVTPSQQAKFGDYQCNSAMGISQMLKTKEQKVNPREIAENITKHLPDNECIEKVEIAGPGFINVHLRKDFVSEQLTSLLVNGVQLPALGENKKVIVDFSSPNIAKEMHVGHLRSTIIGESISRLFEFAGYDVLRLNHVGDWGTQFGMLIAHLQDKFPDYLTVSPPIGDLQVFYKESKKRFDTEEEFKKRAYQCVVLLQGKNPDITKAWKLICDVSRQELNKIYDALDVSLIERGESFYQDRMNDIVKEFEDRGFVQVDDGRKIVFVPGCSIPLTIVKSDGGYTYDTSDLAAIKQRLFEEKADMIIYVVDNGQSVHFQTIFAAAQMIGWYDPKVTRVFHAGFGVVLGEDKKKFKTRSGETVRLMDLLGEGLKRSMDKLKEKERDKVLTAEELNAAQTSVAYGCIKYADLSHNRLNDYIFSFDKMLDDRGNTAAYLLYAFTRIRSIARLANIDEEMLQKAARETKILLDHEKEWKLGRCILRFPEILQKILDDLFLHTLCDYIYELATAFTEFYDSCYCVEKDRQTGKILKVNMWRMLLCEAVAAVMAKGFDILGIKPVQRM
The test can be described thus: co-IP; MSC purification: 293T transfected with FLAG-ArgRS or FLAG-p43, lysate on anti-FLAG M2 affinity gel 2 h at 4 °C, washed with PBS four times, eluted with 3xFLAG peptides; Coomassie staining and Western blots. To be noted: remark: other sources report otherwise.

For a further test, the target named is T3, FLAG-p43 (human), Q12904.
T3 chain: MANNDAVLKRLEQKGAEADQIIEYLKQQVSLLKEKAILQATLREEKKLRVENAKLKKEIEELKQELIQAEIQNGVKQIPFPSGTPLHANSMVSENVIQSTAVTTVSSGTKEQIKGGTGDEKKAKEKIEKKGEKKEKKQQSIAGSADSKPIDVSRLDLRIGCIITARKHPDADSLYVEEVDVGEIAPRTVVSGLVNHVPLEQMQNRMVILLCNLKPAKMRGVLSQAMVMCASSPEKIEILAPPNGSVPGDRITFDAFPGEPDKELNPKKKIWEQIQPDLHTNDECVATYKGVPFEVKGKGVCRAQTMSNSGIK
The description is as above. Conditions: remark: other sources report otherwise.

Test [3] concerns the target T2, FLAG-ArgRS (human), P54136. Description: co-IP; 293T extracts overexpressing FLAG-tagged full-length or truncated ArgRS, p43 or GlnRS; IP with FLAG antibody, Western blot with antibodies against MSC components. To be noted: remark: other sources report otherwise. (In general: In western blotting, separated proteins are transferred to a membrane and probed.)
Another test deals with FLAG-calpain 2 (human) (UniProt P17655). Description: co-IP; FLAG-calpain 2 or FLAG-calpain 1 overexpressed in 293T; IP with anti-FLAG antibody, Western blot with antibodies against endogenous MSC components; mouse IgG as negative control.
In another test the target is FLAG-calpain 1 (human) (UniProt P07384). Described as above.
A further test concerns the target T4, FLAG-ArgRSΔN63 (human) (UniProt P54136).
T4 sequence: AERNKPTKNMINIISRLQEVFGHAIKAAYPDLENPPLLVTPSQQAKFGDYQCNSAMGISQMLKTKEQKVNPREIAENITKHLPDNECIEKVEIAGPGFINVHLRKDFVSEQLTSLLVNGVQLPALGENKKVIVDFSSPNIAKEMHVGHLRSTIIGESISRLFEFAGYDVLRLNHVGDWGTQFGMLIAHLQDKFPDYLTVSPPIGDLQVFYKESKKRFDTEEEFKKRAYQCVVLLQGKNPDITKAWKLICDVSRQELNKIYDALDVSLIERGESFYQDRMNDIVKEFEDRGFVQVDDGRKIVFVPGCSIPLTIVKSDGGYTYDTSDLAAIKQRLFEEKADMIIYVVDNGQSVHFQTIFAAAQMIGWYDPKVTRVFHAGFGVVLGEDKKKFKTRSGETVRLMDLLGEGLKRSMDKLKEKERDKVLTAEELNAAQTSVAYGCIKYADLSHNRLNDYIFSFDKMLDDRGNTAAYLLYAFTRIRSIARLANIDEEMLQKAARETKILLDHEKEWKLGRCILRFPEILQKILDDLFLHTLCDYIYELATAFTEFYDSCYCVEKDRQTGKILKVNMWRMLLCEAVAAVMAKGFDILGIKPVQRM
The test can be described thus: co-IP; 293T extracts overexpressing FLAG-tagged full-length or truncated ArgRS, p43 or GlnRS; IP with FLAG antibody, Western blot with antibodies against MSC components.

These are yes or no findings as the source states them, for the method shown. In cells and extracts the contact can be indirect. Some results given as binding are weak or reduced against the parent protein; the word gives no strength. For part of these data: Sequences can lack the tags named with a protein.

B1: MetRS-His6, P56192 1-900 (enzyme)
chain: MRLFVSDGVPGCLPVLAAAGRARGRAEVLISTVGPEDCVVPFLTRPKVPVLQLDSGNYLFSTSAICRYFFLLSGWEQDDLTNQWLEWEATELQPALSAALYYLVVQGKKGEDVLGSVRRALTHIDHSLSRQNCPFLAGETESLADIVLWGALYPLLQDPAYLPEELSALHSWFQTLSTQEPCQRAAETVLKQQGVLALRPYLQKQPQPSPAEGRAVTNEPEEEELATLSEEEIAMAVTAWEKGLESLPPLRPQQNPVLPVAGERNVLITSALPYVNNVPHLGNIIGCVLSADVFARYSRLRQWNTLYLCGTDEYGTATETKALEEGLTPQEICDKYHIIHADIYRWFNISFDIFGRTTTPQQTKITQDIFQQLLKRGFVLQDTVEQLRCEHCARFLADRFVEGVCPFCGYEEARGDQCDKCGKLINAVELKKPQCKVCRSCPVVQSSQHLFLDLPKLEKRLEEWLGRTLPGSDWTPNAQFITRSWLRDGLKPRCITRDLKWGTPVPLEGFEDKVFYVWFDATIGYLSITANYTDQWERWWKNPEQVDLYQFMAKDNVPFHSLVFPCSALGAEDNYTLVSHLIATEYLNYEDGKFSKSRGVGVFGDMAQDTGIPADIWRFYLLYIRPEGQDSAFSWTDLLLKNNSELLNNLGNFINRAGMFVSKFFGGYVPEMVLTPDDQRLLAHVTLELQHYHQLLEKVRIRDALRSILTISRHGNQYIQVNEPWKRIKGSEADRQRAGTVTGLAVNIAALLSVMLQPYMPTVSATIQAQLQLPPPACSILLTNFLCTLPAGHQIGTVSPLFQKLENDQIESLRQRFGGGQAKTSPKPAVVETVTTAKPQQIQALMDEVTKQGNIVRELKAQKADKNEVAAEVAKLLDLKKQLAVAEGKPPEAPKGKKKK
For the molecule B1, the binding result in test [1] is “binds”.

B2: p43, endogenous, Q12904 1-312 (protein)
chain: MANNDAVLKRLEQKGAEADQIIEYLKQQVSLLKEKAILQATLREEKKLRVENAKLKKEIEELKQELIQAEIQNGVKQIPFPSGTPLHANSMVSENVIQSTAVTTVSSGTKEQIKGGTGDEKKAKEKIEKKGEKKEKKQQSIAGSADSKPIDVSRLDLRIGCIITARKHPDADSLYVEEVDVGEIAPRTVVSGLVNHVPLEQMQNRMVILLCNLKPAKMRGVLSQAMVMCASSPEKIEILAPPNGSVPGDRITFDAFPGEPDKELNPKKKIWEQIQPDLHTNDECVATYKGVPFEVKGKGVCRAQTMSNSGIK
On to B2, for which the binding entry in test [2] is recorded as “binds”; in the test with FLAG-p43 (human), Q12904 it was “binds”; in test [3] it was “binds”.

B3: p43, endogenous (protein, UniProt Q12904 1-312)
chain: MANNDAVLKRLEQKGAEADQIIEYLKQQVSLLKEKAILQATLREEKKLRVENAKLKKEIEELKQELIQAEIQNGVKQIPFPSGTPLHANSMVSENVIQSTAVTTVSSGTKEQIKGGTGDEKKAKEKIEKKGEKKEKKQQSIAGSADSKPIDVSRLDLRIGCIITARKHPDADSLYVEEVDVGEIAPRTVVSGLVNHVPLEQMQNRMVILLCNLKPAKMRGVLSQAMVMCASSPEKIEILAPPNGSVPGDRITFDAFPGEPDKELNPKKKIWEQIQPDLHTNDECVATYKGVPFEVKGKGVCRAQTMSNSGIK
For the molecule B3, the binding entry with FLAG-calpain 2 (human) is recorded as “binds”; with FLAG-calpain 1 (human), “no binding”; with FLAG-ArgRSΔN63 (human), “no binding”.

B4: AspRS-Myc, P14868 1-501 (enzyme)
chain: MPSASASRKSQEKPREIMDAAEDYAKERYGISSMIQSQEKPDRVLVRVRDLTIQKADEVVWVRARVHTSRAKGKQCFLVLRQQQFNVQALVAVGDHASKQMVKFAANINKESIVDVEGVVRKVNQKIGSCTQQDVELHVQKIYVISLAEPRLPLQLDDAVRPEAEGEEEGRATVNQDTRLDNRVIDLRTSTSQAVFRLQSGICHLFRETLINKGFVEIQTPKIISAASEGGANVFTVSYFKNNAYLAQSPQLYKQMCICADFEKVFSIGPVFRAEDSNTHRHLTEFVGLDIEMAFNYHYHEVMEEIADTMVQIFKGLQERFQTEIQTVNKQFPCEPFKFLEPTLRLEYCEALAMLREAGVEMGDEDDLSTPNEKLLGHLVKEKYDTDFYILDKYPLAVRPFYTMPDPRNPKQSNSYDMFMRGEEILSGAQRIHDPQLLTERALHHGIDLEKIKAYIDSFRFGAPPHAGGGIGLERVTMLFLGLHNVRQTSMFPRDPKRLTP
B4: in test [1], the binding entry is “binds”.

B5: p38, endogenous (protein, UniProt Q13155 1-320)
chain: MPMYQVKPYHGGGAPLRVELPTCMYRLPNVHGRSYGPAPGAGHVQEESNLSLQALESRQDDILKRLYELKAAVDGLSKMIQTPDADLDVTNIIQADEPTTLTTNALDLNSVLGKDYGALKDIVINANPASPPLSLLVLHRLLCEHFRVLSTVHTHSSVKSVPENLLKCFGEQNKKQPRQDYQLGFTLIWKNVPKTQMKFSIQTMCPIEGEGNIARFLFSLFGQKHNAVNATLIDSWVDIAIFQLKEGSSKEKAAVFRSMNSALGKSPWLAGNELTVADVVLWSVLQQIGGCSVTVPANVQRWMRSCENLAPFNTALKLLK
As for B5, in the test with FLAG-ArgRSΔN63 (human), the binding entry is reported as “no binding”.
